Assay results taken from article PMC9323733, “Efficacy of Vafidemstat in Experimental Autoimmune Encephalomyelitis Highlights the KDM1A/RCOR1/HDAC Epigenetic Axis in Multiple Sclerosis” (Pharmaceutics, 2022).

Key:
spinal cord of EAE mice = assay: Microarray, spinal cord of EAE mice, effector phase (E), 24 h after treatment; ORY-2001 0.5 mg/kg, FTY720 1.0 mg/kg; format: in vivo, mouse
Method: (§1) We evaluated differences in gene expression induced by the treatment using real-time PCR and by microarray hybridization analysis. First, total RNA was isolated from brain and spinal cord segments from EAE mice using Qiazol™ and the RNeasy MiniKit™ extraction kit (Qiagen). Evaluation of RNA quality was performed with the Agilent 2100 bioanalyzer and NanoDrop™ ND-1000 (Thermo Scientific, Dartford, Kent, UK). After DNAse I treatment, RNA (1 µg/sample) was reverse transcribed using RevertAid First strand cDNA Synthesis kit (Fermentas) and random hexamer primers. […]
(§2) For the gene expression studies, data from microarray assays were normalized by modified nonlinear Q-splines normalization method and Log2(Sample/Vehicle) values calculated without background correction (which permits robust selection of differentially expressed genes yet may lead to sub-estimation of the magnitude of change for genes expressed near the detection limit). Differential expression was assessed with the proprietary Polyphemus software using robust statistics on the average technical replicates (3 replicates/gene oligo datapoint) after removing eventual outlier points (caused by dust or array imperfections). […]

brain of EAE mice = assay: Microarray, brain of EAE mice, effector phase (E), 24 h after treatment; ORY-2001 0.5 mg/kg, FTY720 1.0 mg/kg; format: in vivo, mouse
Method: as §1, §2

**Q.** Which “slope of regression line, Log2(ORY-2001/Veh) versus Log2(FTY720/Veh)” value (spinal cord of EAE mice) does the source give for `Nc1nnc(CN[C@@H]2C[C@H]2c2ccc(OCc3ccccc3)cc2)o1` [ORY-2001] here?
**A.** 0.827

**Q.** What about the “slope of regression line, Log2(ORY-2001/Veh) versus Log2(FTY720/Veh)” value (brain of EAE mice) of the same molecule?
**A.** 0.7308
